# Test results taken from PMC9916724.
# Sequences of proteins named here, by UniProt entry; tags and fusion partners are left off. Residues count along the entry.
# UniProt P11021, residues 19-654: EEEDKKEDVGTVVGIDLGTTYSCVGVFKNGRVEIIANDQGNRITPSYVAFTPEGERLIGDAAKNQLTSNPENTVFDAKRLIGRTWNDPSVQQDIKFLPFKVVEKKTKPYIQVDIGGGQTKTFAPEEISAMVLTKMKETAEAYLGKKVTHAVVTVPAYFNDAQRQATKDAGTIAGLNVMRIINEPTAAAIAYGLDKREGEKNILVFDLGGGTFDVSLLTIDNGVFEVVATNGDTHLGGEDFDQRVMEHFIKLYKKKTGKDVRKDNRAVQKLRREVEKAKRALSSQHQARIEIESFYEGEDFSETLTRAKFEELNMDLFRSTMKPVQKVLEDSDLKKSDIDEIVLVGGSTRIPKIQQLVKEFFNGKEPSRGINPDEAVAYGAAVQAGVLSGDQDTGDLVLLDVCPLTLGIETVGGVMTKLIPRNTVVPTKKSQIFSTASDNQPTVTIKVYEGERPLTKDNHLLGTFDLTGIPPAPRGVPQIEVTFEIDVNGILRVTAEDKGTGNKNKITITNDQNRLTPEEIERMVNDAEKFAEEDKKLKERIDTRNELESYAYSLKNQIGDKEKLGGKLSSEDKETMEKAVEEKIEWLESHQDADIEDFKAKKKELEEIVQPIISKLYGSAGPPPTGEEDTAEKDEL
# Results are given in words; binding and its absence hold for the method and conditions named. Binding seen in cells or lysates may run through a third protein. Some binding calls cover weakened binding; strength is not graded here.
# Target: GRP78 (human (endogenous in cultured human podocytes)) (UniProt P11021)
# Assay: co-IP; human podocytes lysed in IP lysis buffer; immunoprecipitation with anti-GRP78 or anti-αvβ5 overnight at 4 °C, protein G-Sepharose beads 1 h at 4 °C; immunoblot with anti-ISM; basal conditions; negative control with unspecific antibody
binder,measurement,value
"Isthmin-1 (ISM1) (protein, UniProt B1AKI9 30-464) ADGPDAAAGNASQAQLQNNLNVGSDTTSETSFSLSKEAPREHLDHQAAHQPFPRPRFRQETGHPSLQRDFPRSFLLDLPNFPDLSKADINGQNPNIQVTIEVVDGPDSEADKDQHPENKPSWSVPSPDWRAWWQRSLSLARANSGDQDYKYDSTSDDSNFLNPPRGWDHTAPGHRTFETKDQPEYDSTDGEGDWSLWSVCSVTCGNGNQKRTRSCGYACTATESRTCDRPNCPGIEDTFRTAATEVSLLAGSEEFNATKLFEVDTDSCERWMSCKSEFLKKYMHKVMNDLPSCPCSYPTEVAYSTADIFDRIKRKDFRWKDASGPKEKLEIYKPTARYCIRSMLSLESTTLAAQHCCYGDNMQLITRGKGAGTPNLISTEFSAELHYKVDVLPWIICKGDWSRYNEARPPNNGQKCTESPSDEDYIKQFQEAREY",binding,binds
